These are yes or no findings as the source states them, for the method shown. In cells and extracts the contact can be indirect. Some results given as binding are weak or reduced against the parent protein; the word gives no strength. Tags and fused reporters may be left off the sequences shown.
T1: HA-tagged LAP2β (UniProt P42167)
T1 sequence: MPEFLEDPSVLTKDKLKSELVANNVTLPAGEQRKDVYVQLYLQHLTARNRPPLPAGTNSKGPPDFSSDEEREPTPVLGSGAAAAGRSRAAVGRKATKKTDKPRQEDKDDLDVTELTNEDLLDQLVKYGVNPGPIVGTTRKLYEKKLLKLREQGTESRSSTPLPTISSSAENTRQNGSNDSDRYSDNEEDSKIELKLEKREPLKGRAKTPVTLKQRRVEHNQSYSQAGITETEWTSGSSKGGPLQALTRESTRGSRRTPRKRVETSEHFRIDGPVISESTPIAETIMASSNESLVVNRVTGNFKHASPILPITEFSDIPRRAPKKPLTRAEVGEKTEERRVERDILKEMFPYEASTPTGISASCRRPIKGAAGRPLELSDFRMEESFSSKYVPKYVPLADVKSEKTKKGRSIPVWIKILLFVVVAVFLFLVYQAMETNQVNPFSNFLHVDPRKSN

Sequences of proteins named here, by UniProt entry; tags and fusion partners are left off.
UniProt Q96QE3: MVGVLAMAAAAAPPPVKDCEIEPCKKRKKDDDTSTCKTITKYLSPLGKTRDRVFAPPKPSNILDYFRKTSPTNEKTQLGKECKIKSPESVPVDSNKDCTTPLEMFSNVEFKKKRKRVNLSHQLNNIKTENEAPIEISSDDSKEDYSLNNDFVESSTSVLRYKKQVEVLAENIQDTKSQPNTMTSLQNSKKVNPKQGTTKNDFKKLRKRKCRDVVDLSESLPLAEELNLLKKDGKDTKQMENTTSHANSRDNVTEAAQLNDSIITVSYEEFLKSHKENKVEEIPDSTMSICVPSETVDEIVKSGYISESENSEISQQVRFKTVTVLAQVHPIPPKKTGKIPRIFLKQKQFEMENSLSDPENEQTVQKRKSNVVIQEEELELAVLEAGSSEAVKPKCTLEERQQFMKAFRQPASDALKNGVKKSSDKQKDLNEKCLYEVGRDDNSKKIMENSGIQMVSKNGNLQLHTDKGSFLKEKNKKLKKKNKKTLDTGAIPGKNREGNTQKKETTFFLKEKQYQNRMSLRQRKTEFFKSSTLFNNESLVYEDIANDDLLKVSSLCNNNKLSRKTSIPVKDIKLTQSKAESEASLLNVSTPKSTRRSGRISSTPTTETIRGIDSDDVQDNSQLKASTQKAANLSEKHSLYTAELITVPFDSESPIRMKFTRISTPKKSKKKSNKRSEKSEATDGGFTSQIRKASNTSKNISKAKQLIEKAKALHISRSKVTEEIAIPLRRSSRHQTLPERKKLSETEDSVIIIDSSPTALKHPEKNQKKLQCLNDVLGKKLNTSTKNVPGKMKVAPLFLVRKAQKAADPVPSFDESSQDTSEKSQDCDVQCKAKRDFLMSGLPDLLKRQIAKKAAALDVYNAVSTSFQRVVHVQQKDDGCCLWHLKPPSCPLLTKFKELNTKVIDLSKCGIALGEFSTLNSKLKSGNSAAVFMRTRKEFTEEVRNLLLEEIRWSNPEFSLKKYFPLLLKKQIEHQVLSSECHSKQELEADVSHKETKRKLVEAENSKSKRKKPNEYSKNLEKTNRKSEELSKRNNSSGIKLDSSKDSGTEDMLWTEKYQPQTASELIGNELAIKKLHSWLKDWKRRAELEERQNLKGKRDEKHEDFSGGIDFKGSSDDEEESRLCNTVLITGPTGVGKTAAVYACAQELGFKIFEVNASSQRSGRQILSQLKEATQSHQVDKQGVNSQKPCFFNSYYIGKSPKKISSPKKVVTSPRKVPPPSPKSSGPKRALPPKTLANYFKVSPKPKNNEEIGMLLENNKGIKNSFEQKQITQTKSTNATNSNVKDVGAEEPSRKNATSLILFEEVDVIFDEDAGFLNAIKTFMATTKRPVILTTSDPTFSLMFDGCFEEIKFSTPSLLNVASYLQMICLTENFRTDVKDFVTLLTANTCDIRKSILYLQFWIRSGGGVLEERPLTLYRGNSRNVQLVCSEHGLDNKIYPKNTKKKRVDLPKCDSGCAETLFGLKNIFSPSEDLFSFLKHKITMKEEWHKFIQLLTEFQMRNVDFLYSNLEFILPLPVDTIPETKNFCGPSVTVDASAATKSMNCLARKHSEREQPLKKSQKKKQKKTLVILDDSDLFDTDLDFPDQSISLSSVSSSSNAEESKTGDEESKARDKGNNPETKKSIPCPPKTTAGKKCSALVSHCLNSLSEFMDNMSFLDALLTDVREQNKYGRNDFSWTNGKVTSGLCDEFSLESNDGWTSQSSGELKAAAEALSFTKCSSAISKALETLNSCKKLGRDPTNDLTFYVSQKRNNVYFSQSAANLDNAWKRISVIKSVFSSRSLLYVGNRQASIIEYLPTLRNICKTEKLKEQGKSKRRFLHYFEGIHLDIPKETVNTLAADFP
UniProt P35249: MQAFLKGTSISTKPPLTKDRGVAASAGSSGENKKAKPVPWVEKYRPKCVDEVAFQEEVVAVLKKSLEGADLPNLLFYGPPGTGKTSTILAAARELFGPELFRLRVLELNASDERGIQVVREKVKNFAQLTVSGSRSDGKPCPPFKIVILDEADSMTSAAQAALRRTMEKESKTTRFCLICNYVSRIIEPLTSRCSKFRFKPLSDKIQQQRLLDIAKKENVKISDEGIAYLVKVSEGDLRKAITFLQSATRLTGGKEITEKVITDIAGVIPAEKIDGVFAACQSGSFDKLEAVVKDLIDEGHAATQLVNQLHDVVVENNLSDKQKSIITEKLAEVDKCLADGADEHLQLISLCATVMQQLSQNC


Legend:
Test in all cases: co-IP; HEK293T cells co-transfected with both partners; whole-cell extracts (buffer X: 100 mM Tris-HCl, 250 mM NaCl, 1 mM EDTA, 1% NP-40, Benzonase, sonication) immunoprecipitated with anti-FLAG or anti-HA antibody, immunoblotting
[1] = target: T1, HA-tagged LAP2β
[2] = target: 3xFLAG-tagged ATAD5 (human) (UniProt Q96QE3)
[3] = target: 3xFLAG-tagged RFC4 (UniProt P35249)

binding [1] | binding [2] | binding [3] | Molecule
binds | – | – | RFC4 (transiently overexpressed) (from UniProt P35249 1-363)
binds | – | – | RFC1 (transiently overexpressed) (protein, UniProt P35251 1-1148) MDIRKFFGVIPSGKKLVSETVKKNEKTKSDEETLKAKKGIKEIKVNSSRKEDDFKQKQPSKKKRIIYDSDSESEETLQVKNAKKPPEKLPVSSKPGKISRQDPVTYISETDEEDDFMCKKAASKSKENGRSTNSHLGTSNMKKNEENTKTKNKPLSPIKLTPTSVLDYFGTGSVQRSNKKMVASKRKELSQNTDESGLNDEAIAKQLQLDEDAELERQLHEDEEFARTLAMLDEEPKTKKARKDTEAGETFSSVQANLSKAEKHKYPHKVKTAQVSDERKSYSPRKQSKYESSKESQQHSKSSADKIGEVSSPKASSKLAIMKRKEESSYKEIEPVASKRKENAIKLKGETKTPKKTKSSPAKKESVSPEDSEKKRTNYQAYRSYLNREGPKALGSKEIPKGAENCLEGLIFVITGVLESIERDEAKSLIERYGGKVTGNVSKKTNYLVMGRDSGQSKSDKAAALGTKIIDEDGLLNLIRTMPGKKSKYEIAVETEMKKESKLERTPQKNVQGKRKISPSKKESESKKSRPTSKRDSLAKTIKKETDVFWKSLDFKEQVAEETSGDSKARNLADDSSENKVENLLWVDKYKPTSLKTIIGQQGDQSCANKLLRWLRNWQKSSSEDKKHAAKFGKFSGKDDGSSFKAALLSGPPGVGKTTTASLVCQELGYSYVELNASDTRSKSSLKAIVAESLNNTSIKGFYSNGAASSVSTKHALIMDEVDGMAGNEDRGGIQELIGLIKHTKIPIICMCNDRNHPKIRSLVHYCFDLRFQRPRVEQIKGAMMSIAFKEGLKIPPPAMNEIILGANQDIRQVLHNLSMWCARSKALTYDQAKADSHRAKKDIKMGPFDVARKVFAAGEETAHMSLVDKSDLFFHDYSIAPLFVQENYIHVKPVAAGGDMKKHLMLLSRAADSICDGDLVDSQIRSKQNWSLLPAQAIYASVLPGELMRGYMTQFPTFPSWLGKHSSTGKHDRIVQDLALHMSLRTYSSKRTVNMDYLSLLRDALVQPLTSQGVDGVQDVVALMDTYYLMKEDFENIMEISSWGGKPSPFSKLDPKVKAAFTRAYNKEAHLTPYSLQAIKASRHSTSPSLDSEYNEELNEDDSQSDEKDQDAIETDAMIKKKTKSSKPSKPEKDKEPRKGKGKSSKK
– | binds | binds | HA-tagged LAP2β (protein, UniProt P42167 1-454) MPEFLEDPSVLTKDKLKSELVANNVTLPAGEQRKDVYVQLYLQHLTARNRPPLPAGTNSKGPPDFSSDEEREPTPVLGSGAAAAGRSRAAVGRKATKKTDKPRQEDKDDLDVTELTNEDLLDQLVKYGVNPGPIVGTTRKLYEKKLLKLREQGTESRSSTPLPTISSSAENTRQNGSNDSDRYSDNEEDSKIELKLEKREPLKGRAKTPVTLKQRRVEHNQSYSQAGITETEWTSGSSKGGPLQALTRESTRGSRRTPRKRVETSEHFRIDGPVISESTPIAETIMASSNESLVVNRVTGNFKHASPILPITEFSDIPRRAPKKPLTRAEVGEKTEERRVERDILKEMFPYEASTPTGISASCRRPIKGAAGRPLELSDFRMEESFSSKYVPKYVPLADVKSEKTKKGRSIPVWIKILLFVVVAVFLFLVYQAMETNQVNPFSNFLHVDPRKSN

— paper PMC8575788
